The list does not hold the whole screen: it gathers tests that were run many times, whatever their T/C, doses with no T/C, and many T/C values between a quarter and a half above the control. Other doses and runs of a compound stand elsewhere. T/C gives the treated animals as a percentage of the vehicle group. Some entries give survivors of the animals treated and no T/C: the source files T/C as zero there, which appears to mark a toxic dose or a test without result, not a measured value. Some survivor counts are full or nearly so, which does not show that the dose was tolerated: the source hardly ever lists a survival T/C far under the control, and the zero likely stands for such cases as well. Counts of survivors are from the toxicity check (mostly the fifth day) where no day follows; animals may have died later. Schedule codes are those of the source, taken here to give the interval after Q, in days (D) or hours (H), and the number of doses after X. Some entries were tested several times; the values are given in rising order. For survival time, this PubChem deposit counts one and a half times the control or more as active, and values a quarter to a half above the control carry no call in these data; other NCI protocols may use other cut-offs. Some T/C values carry the count of animals alive at the toxicity check (mostly the fifth day); where none is given, no animal had died by that day. Some schedule codes hold Z or #, which are not explained here.

18 compounds from PubChem BioAssay AID256 (DTP/NCI, 2004) can be followed below.

The experiment concerns CD2F1 mice, L1210 leukemia ip, survival T/C. The experiment can be described thus: NCI In Vivo Anticancer Drug Screen. Data for tumor model L1210 Leukemia (intraperitoneal) in CD2F1 (CDF1) mice. The following applies: higher T/C = longer survival. Put shortly:
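Vehicle-treated tumor-bearing mice served as controls (C) for compound-treated mice (T). Reported figure is T divided by C.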

Where [1] appears, read: T/C endpoint: mean survival time, dose: 400.0 mg/kg/injection, schedule: Q04DX003 (ip), vehicle: saline with Tween-80.
The mark [2] stands for this setting: T/C endpoint: mean survival time, dose: 400.0 mg/kg/injection, schedule: Q04DX003 (ip), vehicle: saline.
Where [3] appears, read: T/C endpoint: mean survival time, dose: 50.0 mg/kg/injection, schedule: Q04DX002 (ip), vehicle: saline with Tween-80.
Where [4] appears, read: T/C endpoint: mean survival time, dose: 100.0 mg/kg/injection, schedule: Q04DX002 (ip), vehicle: saline with Tween-80.
Setting [5] is: T/C endpoint: mean survival time, dose: 400.0 mg/kg/injection, schedule: Q04DX002 (ip), vehicle: saline with Tween-80.
[6] abbreviates: T/C endpoint: mean survival time, dose: 400.0 mg/kg/injection, schedule: Q01DX009 (ip), vehicle: saline.

As for `CCOC(=S)SCCSC`, the survivor count (T/C endpoint: mean survival time, dose: 400.0 mg/kg/injection, schedule: Q01DX001 (ip), vehicle: saline) is reported as 1 of 4.

In the case of `O=S(=O)(O)O.[NH-]C(c1ccccc1)C([NH-])c1ccccc1.[Pt+2]` (configuration not stated), the T/C by setting is: (T/C endpoint: mean survival time, dose: 6.25 mg/kg/injection, schedule: Q04DX003 (ip), vehicle: saline with Tween-80) 131 % of control; (T/C endpoint: mean survival time, dose: 12.5 mg/kg/injection, schedule: Q04DX003 (ip), vehicle: saline with Tween-80) 134 and 148 % of control [5 of 6 alive]; (T/C endpoint: mean survival time, dose: 25.0 mg/kg/injection, schedule: Q04DX003 (ip), vehicle: saline with Tween-80) 146 % of control.

`CC1=C(/C=C/C(C)=C/C=C/C(C)=C/C=O)C(C)(C)CCC1`: the survivor count reads like this: (T/C endpoint: median survival time, dose: 100.0 mg/kg/injection, schedule: Q01DX005 (ip), vehicle: saline with Tween-80) 3 of 6; (T/C endpoint: median survival time, dose: 200.0 mg/kg/injection, schedule: Q01DX005 (ip), vehicle: saline with Tween-80) 0 of 6; (T/C endpoint: median survival time, dose: 400.0 mg/kg/injection, schedule: Q01DX005 (ip), vehicle: saline with Tween-80) 0 of 6.

Regarding `O=C(CI)OCCCl`, the survivor count runs as follows: (T/C endpoint: mean survival time, dose: 100.0 mg/kg/injection, schedule: Q01DX009 (ip), vehicle: other) 2 of 6; (T/C endpoint: mean survival time, dose: 200.0 mg/kg/injection, schedule: Q01DX009 (ip), vehicle: other) 0 of 6; (T/C endpoint: mean survival time, dose: 400.0 mg/kg/injection, schedule: Q01DX009 (ip), vehicle: other) 0 of 6.

For `CC(C)C(NC(=O)OC(C)(C)C)C(=O)ON1C(=O)CCC1=O` (configuration not stated), the survivor count under setting [1] is reported as 2 of 6.

As for `CC(C)(C)OC(=O)N/N=C1\CC2CCC1C2` (configuration not stated), the survivor count is on record as 5 of 6 (T/C endpoint: mean survival time, dose: 50.0 mg/kg/injection, schedule: Q01DX009 (ip), vehicle: saline with Tween-80) and 2 of 6 (T/C endpoint: mean survival time, dose: 100.0 mg/kg/injection, schedule: Q01DX009 (ip), vehicle: saline with Tween-80).

Consider `OCCOCCN1CCN(CC/C=C2\c3ccccc3Sc3ccc(C(F)(F)F)cc32)CC1`, for which the survivor count is, setting by setting: (T/C endpoint: mean survival time, dose: 6.25 mg/kg/injection, schedule: Q01DX009 (ip), vehicle: saline sonified) 5 of 6; (T/C endpoint: mean survival time, dose: 12.5 mg/kg/injection, schedule: Q01DX009 (ip), vehicle: saline sonified) 4 of 6; (T/C endpoint: mean survival time, dose: 25.0 mg/kg/injection, schedule: Q01DX009 (ip), vehicle: saline sonified) 0 of 6; (T/C endpoint: mean survival time, dose: 100.0 mg/kg/injection, schedule: Q04DX003 (ip), vehicle: saline) 0 of 6; (T/C endpoint: mean survival time, dose: 200.0 mg/kg/injection, schedule: Q04DX003 (ip), vehicle: saline) 0 of 6; under setting [2], 0 of 6. Further, the T/C reads like this: (T/C endpoint: mean survival time, dose: 12.5 mg/kg/injection, schedule: Q04DX003 (ip), vehicle: saline, evaluated on day 20) 125 % of control; (T/C endpoint: mean survival time, dose: 12.5 mg/kg/injection, schedule: Q04DX003 (ip), vehicle: saline, evaluated on day 30) 138 % of control; (T/C endpoint: mean survival time, dose: 18.0 mg/kg/injection, schedule: Q04DX003 (ip), vehicle: saline with Tween-80) 133 % of control; (T/C endpoint: mean survival time, dose: 25.0 mg/kg/injection, schedule: Q04DX003 (ip), vehicle: saline) 130 and 132 % of control; (T/C endpoint: mean survival time, dose: 50.0 mg/kg/injection, schedule: Q04DX003 (ip), vehicle: saline) 128 % of control.

Take `C[CH2][Sn]1([CH2]C)[O]OC(c2ccccc2)[O]1` (configuration not stated): the survivor count reads like this: (T/C endpoint: mean survival time, dose: 25.0 mg/kg/injection, schedule: Q01DX009 (ip), vehicle: saline with Tween-80) 0 of 6; (T/C endpoint: mean survival time, dose: 25.0 mg/kg/injection, schedule: Q04DX002 (ip), vehicle: saline with Tween-80) 0 of 3; under setting [3], 0 of 3; under setting [4], 0 of 3.

For the compound `CC(=O)OCC1OC(n2cnc3c(=S)nc(N)[nH]c32)CC1OC(C)=O` (configuration not stated), the T/C is, setting by setting: (T/C endpoint: mean survival time, dose: 2.5 mg/kg/injection, schedule: Q01DX005 (ip), vehicle: saline with Tween-80) 125 % of control; (T/C endpoint: mean survival time, dose: 5.0 mg/kg/injection, schedule: Q01DX005 (ip), vehicle: saline with Tween-80) 137 % of control; (T/C endpoint: mean survival time, dose: 10.0 mg/kg/injection, schedule: Q01DX005 (ip), vehicle: saline with Tween-80) 137 % of control. Further, the survivor count (T/C endpoint: mean survival time, dose: 40.0 mg/kg/injection, schedule: Q01DX005 (ip), vehicle: saline with Tween-80) is recorded as 7 of 7.

On to `O=C1N(c2ccccc2)SN2C3C=CC(C4CC43)N12` (configuration not stated), for which the survivor count reads like this: under setting [3], 0 of 3; under setting [4], 0 of 3; (T/C endpoint: mean survival time, dose: 200.0 mg/kg/injection, schedule: Q04DX002 (ip), vehicle: saline with Tween-80) 0 of 3; under setting [5], 0 of 3.

As for `OC(c1ccccc1)c1cc(-c2ccccc2)c(-c2ccccc2)cc1C(O)c1ccccc1` (configuration not stated), the survivor count runs as follows: (T/C endpoint: mean survival time, dose: 50.0 mg/kg/injection, schedule: Q04DX003 (ip), vehicle: saline with Tween-80) 5 of 6; (T/C endpoint: mean survival time, dose: 100.0 mg/kg/injection, schedule: Q04DX003 (ip), vehicle: saline with Tween-80) 2 of 6; (T/C endpoint: mean survival time, dose: 200.0 mg/kg/injection, schedule: Q04DX003 (ip), vehicle: saline with Tween-80) 1 of 6; under setting [1], 0 of 6.

Regarding `O=C1OC(C(Cl)(Cl)Cl)OC1C(Cl)(Cl)Cl` (configuration not stated), the survivor count is, setting by setting: (T/C endpoint: mean survival time, dose: 200.0 mg/kg/injection, schedule: Q01DX001 (ip), vehicle: saline with Tween-80) 3 of 6; (T/C endpoint: mean survival time, dose: 400.0 mg/kg/injection, schedule: Q01DX001 (ip), vehicle: saline with Tween-80) 0 of 6.

For `S=C=Nc1ccccn1`, the survivor count under setting [5] is given as 0 of 3.

For `OC(O)(C(F)(F)F)C(F)(F)F`, the survivor count (T/C endpoint: mean survival time, dose: 200.0 mg/kg/injection, schedule: Q01DX005 (ip), vehicle: saline) is reported as 0 of 3 and the survivor count (T/C endpoint: mean survival time, dose: 400.0 mg/kg/injection, schedule: Q04DX002 (ip), vehicle: saline) is given as 0 of 3.

On to `COc1cc(NCCCCCCCNC(C)C)c2nccc(C)c2c1`, for which the survivor count (T/C endpoint: median survival time, dose: 25.0 mg/kg/injection, schedule: Q01DX009 (ip), vehicle: saline) is reported as 3 of 6 and the survivor count (T/C endpoint: median survival time, dose: 50.0 mg/kg/injection, schedule: Q01DX009 (ip), vehicle: saline) was 6 of 6.

For the compound `C=CCOCC1CO1` (configuration not stated), under setting [6], the T/C is 127 % of control [4 of 6 alive] and the survivor count was 1 of 6.

On to `N#[N+]c1cnc([O-])[nH]c1=O`, for which the T/C is, setting by setting: (T/C endpoint: mean survival time, dose: 4.0 mg/kg/injection, schedule: Q03DX Z (ip), vehicle: saline) 125 % of control; (T/C endpoint: mean survival time, dose: 8.0 mg/kg/injection, schedule: Q01DX001 (ip), vehicle: saline) 130 % of control [5 of 6 alive]; (T/C endpoint: mean survival time, dose: 8.0 mg/kg/injection, schedule: Q03DX Z (ip), vehicle: saline) 127 % of control; (T/C endpoint: mean survival time, dose: 16.0 mg/kg/injection, schedule: Q01DX001 (ip), vehicle: saline) 133 % of control; (T/C endpoint: mean survival time, dose: 16.0 mg/kg/injection, schedule: Q03DX Z (ip), vehicle: saline) 145 % of control [5 of 6 alive]. Moreover, the survivor count (T/C endpoint: mean survival time, dose: 64.0 mg/kg/injection, schedule: Q01DX001 (ip), vehicle: saline) is 0 of 6 and 6 of 6.

In the case of `Cc1ncc2cnccn12`, the survivor count is on record as 3 of 6 (T/C endpoint: mean survival time, dose: 200.0 mg/kg/injection, schedule: Q01DX009 (ip), vehicle: saline sonified) and 0 of 6 under setting [2].
